Laboratory results published in publication PMC7615311 (Science (New York, N.Y.), 2023).

Key:
cortactin (CTTN) = experiment: decryptM, acetylation of HDAC6 substrate cortactin in HeLa cells; assay type: cell-based; conditions: Homo sapiens, read-out: EC50 of enhanced acetylation of cortactin (CTTN)
H2B1N and H2B1D = experiment: cells; conditions: Homo sapiens, HeLa, read-out: EC50 of acetylation of H2B1N and H2B1D

EC50 (cortactin (CTTN)): 50 to 90 nM
EC50 (H2B1N and H2B1D): 1000 to 1500 nM
SMILES: O=C(CCCCCCC(=O)Nc1ccccc1)NO [vorinostat]
